For 2 molecules, binding results are on record in US20040038243A1.

Chains of the proteins cited; added tags and fusions are not shown.
UniProt P10415: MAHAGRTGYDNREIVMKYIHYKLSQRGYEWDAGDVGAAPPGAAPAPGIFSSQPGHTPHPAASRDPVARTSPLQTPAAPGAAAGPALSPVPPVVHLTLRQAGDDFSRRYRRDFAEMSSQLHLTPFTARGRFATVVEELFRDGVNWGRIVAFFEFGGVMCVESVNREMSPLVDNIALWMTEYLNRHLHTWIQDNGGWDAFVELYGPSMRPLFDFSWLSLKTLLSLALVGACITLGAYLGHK

The target of experiment [1] is bcl-2 protein (human) (UniProt P10415). Put plainly: co-immunoprecipitation from extracts of cotransfected COS7 cells, Western blot. On the technique in general: In western blotting, separated proteins are transferred to a membrane and probed.
Experiment [2] has the same target. Put plainly: co-immunoprecipitation with anti-HA or anti-bcl-2 antibody from extracts of cotransfected COS7 cells, Western blot.
Experiment [3] has the same target. Description: co-immunoprecipitation (IP with anti-bcl-2 or anti-HA antibody, immunoblotting), COS7 cells cotransfected with bcl-2 and HA-p53AIP1α.

No constants are given. Whether binding was seen depends on the method and setting. In cells and extracts the contact can be indirect. Some entries that bind do so weakly or less than the wild type. Tags and fused reporters may be left off the sequences shown.

B1: HA-p53AIP1β (protein, not shown: small tags and cut ends)
chain: MGSSSEASFRSAQASCSGARRQGLGRGDQNLSVMPPNGRAQTHTPGWVSDPLVLGAQVHGGCRGIEALSVSSGSWSSATVWILTVQ
As for B1, the binding result in the experiment with bcl-2 protein (human) [1] was “binds”.

B2: HA-p53AIP1α (protein, not shown: small tags and cut ends)
chain: MGSSSEASFRSAQASCSGARRQGLGRGDQNLSVMPPNGRAQTHTPGWVSDPLVLGAQVHGGCRGIEALSVSSGSWSSATVWILTGLGLGLSRPFLPGATVLRDRPLGSAFELSYDQKKAPLRLQ
With B2, the binding result with bcl-2 protein (human) [2] and with bcl-2 protein (human) [3] was “binds” each time.
